Where two headings read alike, the source gives them in different places. At least one read-out could not be matched to a standard name with certainty.
System: rats
Parameters: species or system male Sprague-Dawley rats
Details: rat, in vivo

CO[C@]12CC[C@@]3(C[C@@H]1[C@](C)(O)C(C)(C)C)[C@H]1Cc4ccc(O)c5c4[C@@]3(CCN1CC1CC1)[C@H]2O5 [Buprenorphine base, (5α, 7α (S)-17-cyclopropyl-methyl)-α -(1,1-dimethylethyl)-4,5-epoxy-18,19-dihydro-3-hydroxy-6-methoxy-α -methyl-6,14-ethenomorphinan-7-methanol]
Analgesic duration (h): 48; 48; 50 h | Analgesic duration (h) (sc): 48; 50; 48 h

Source: EP1422230B1 (priority 2002, dated 2004)
